Results on 3 molecules are retold here after paper PMC2808209.

For assay [1], the target named is GST-syntaxin 13ΔTM. Description: pull-down; GST-syntaxins lacking the transmembrane domain immobilized on GSH beads, lysate of COS-7 cells transfected with GFP-GRASP-1(594–837); anti-GFP blot; only the target purified.
In assay [2] the target is GST-Rab11 (GTPγS charged). Description: pull-down; binding assay of 35S-labeled GRASP-1 with GTPγS-charged GST-Rab proteins; only the target purified.
In assay [3] the target is GST-Rab3 (GTPγS charged). The description is as above.
The target in assay [4] is GST-Rab4. The assay is described as above.
In assay [5] the target is GST-Rab5 (GTPγS charged). Described as above.
Assay [6] addresses GST-Rab7 (GTPγS charged). The assay is described as above.
Assay [7] has as its target GST-syntaxin 13ΔTM. Description: pull-down; immobilized GST-syntaxin 13ΔTM with 35S-labeled GRASP-1 from a coupled in vitro transcription-translation reaction; only the target purified.
Assay [8] has as its target Flag-Rab4. Description: co-IP; COS-7 cells co-expressing FLAG-tagged Rab and myc-GRASP-1; anti-FLAG immunoprecipitates, eluted with FLAG peptide, Western blot.

These are yes or no findings as the source states them, for the method shown. Binding seen in cells or lysates may run through a third protein. For some assays here: Binding calls can cover weak binding; strength is not graded here. For some assays here: Tags and fused reporters may be left off the sequences shown.

B1: GFP-GRASP-1(594–837) (domain or fragment, UniProt Q9JHZ4-1 594-837)
chain: DGQRILEKKGSAVLKDLKRQLHLERKRADKLQERLQEILTNSKSRTGLEELVLSEMNSPSRTQTGDSSSVSSFSYREILKEKESSAIPARSLSSSPQAQPPRPAELSDEEVAELFQRLAETQQEKWMLEEKVKHLEVSSASMAEDLCRKSAIIETYVMDSRIDVSVAAGHTDRSGLGSVLRDLVKPGDENLREMNKKLQNMLEEQLTKNMHLHKDMEVLSQEIVRLSKECVGSPDPDLEPGEAN
Take B1: the binding entry in assay [1] is reported as “binds”.

B2: 35S-labeled GRASP-1 (protein, UniProt Q9JHZ4-1 1-837)
chain: MAQALSEEEFQRMQTQLLELRTNNYQLSDELRKNGVELSSLRQKVAYLDKEFSKAQKALSKSKKAQEVEVLLSEKEMLQAKLHSQEEDFRLQNSTLMAEFSKLCSQLEQLELENRQLKEGVPGAAGPHVDGELLRLQAENTALQKNMAALQERYGKEAVRPSAVSEGQGDPPGDVLPISLSPMPLAEVELKWEMEREEKKLLWEQLQGLESSKQAETSRLQEELAKLSEKLKKKQESFCRLQTEKETLFNDSRNKIEELQQRKEADLKAQLARTQKLQQELEAANQSLAELRDQRQGERLEHAAALRALQDQVSSQSADAQEQVEGLLAENNALRTSLAALEQIQTAKTQELNMLREQNTELAAELKHRQADYEELMGQKDDLNSQLQESLRANSRLLEQLQEMGQEKEQLIQDLQEARKSAEKRKVMLDELAMETLQEKSQHKEELGAVRLRHEKEMLGVRARYERELRELHEDKKRQEEELRGQIREEKARTRELENLQHTVEELQAQVHSMDGAKGWFERRLKEAEESLLQQEQEQEETLKQCREQHAAELKGKEEELQNVRDQLQQAQEERDGHVKTISNLKQEVKDTVDGQRILEKKGSAVLKDLKRQLHLERKRADKLQERLQEILTNSKSRTGLEELVLSEMNSPSRTQTGDSSSVSSFSYREILKEKESSAIPARSLSSSPQAQPPRPAELSDEEVAELFQRLAETQQEKWMLEEKVKHLEVSSASMAEDLCRKSAIIETYVMDSRIDVSVAAGHTDRSGLGSVLRDLVKPGDENLREMNKKLQNMLEEQLTKNMHLHKDMEVLSQEIVRLSKECVGSPDPDLEPGEAN
modifications: 35S-labeled
With B2, the binding result is listed as “no binding” in assay [2]; “no binding” in assay [3]; “binds” in assay [4]; “no binding” in assay [5]; “binds weakly” in assay [6]; “binds” in assay [7].

B3: myc-GRASP-1, full length (1-837) (protein, UniProt Q9JHZ4-1 1-837)
chain: MAQALSEEEFQRMQTQLLELRTNNYQLSDELRKNGVELSSLRQKVAYLDKEFSKAQKALSKSKKAQEVEVLLSEKEMLQAKLHSQEEDFRLQNSTLMAEFSKLCSQLEQLELENRQLKEGVPGAAGPHVDGELLRLQAENTALQKNMAALQERYGKEAVRPSAVSEGQGDPPGDVLPISLSPMPLAEVELKWEMEREEKKLLWEQLQGLESSKQAETSRLQEELAKLSEKLKKKQESFCRLQTEKETLFNDSRNKIEELQQRKEADLKAQLARTQKLQQELEAANQSLAELRDQRQGERLEHAAALRALQDQVSSQSADAQEQVEGLLAENNALRTSLAALEQIQTAKTQELNMLREQNTELAAELKHRQADYEELMGQKDDLNSQLQESLRANSRLLEQLQEMGQEKEQLIQDLQEARKSAEKRKVMLDELAMETLQEKSQHKEELGAVRLRHEKEMLGVRARYERELRELHEDKKRQEEELRGQIREEKARTRELENLQHTVEELQAQVHSMDGAKGWFERRLKEAEESLLQQEQEQEETLKQCREQHAAELKGKEEELQNVRDQLQQAQEERDGHVKTISNLKQEVKDTVDGQRILEKKGSAVLKDLKRQLHLERKRADKLQERLQEILTNSKSRTGLEELVLSEMNSPSRTQTGDSSSVSSFSYREILKEKESSAIPARSLSSSPQAQPPRPAELSDEEVAELFQRLAETQQEKWMLEEKVKHLEVSSASMAEDLCRKSAIIETYVMDSRIDVSVAAGHTDRSGLGSVLRDLVKPGDENLREMNKKLQNMLEEQLTKNMHLHKDMEVLSQEIVRLSKECVGSPDPDLEPGEAN
For B3, the binding entry in assay [8] is listed as “binds”.
